Measurements: paper PMC5833640
No constants are given. Whether binding was seen depends on the method and setting. In cells and extracts the contact can be indirect. Some results given as binding are weak or reduced against the parent protein; the word gives no strength.

The chains behind the UniProt entries cited, without tags or fusion partners.
UniProt Q8IUC6: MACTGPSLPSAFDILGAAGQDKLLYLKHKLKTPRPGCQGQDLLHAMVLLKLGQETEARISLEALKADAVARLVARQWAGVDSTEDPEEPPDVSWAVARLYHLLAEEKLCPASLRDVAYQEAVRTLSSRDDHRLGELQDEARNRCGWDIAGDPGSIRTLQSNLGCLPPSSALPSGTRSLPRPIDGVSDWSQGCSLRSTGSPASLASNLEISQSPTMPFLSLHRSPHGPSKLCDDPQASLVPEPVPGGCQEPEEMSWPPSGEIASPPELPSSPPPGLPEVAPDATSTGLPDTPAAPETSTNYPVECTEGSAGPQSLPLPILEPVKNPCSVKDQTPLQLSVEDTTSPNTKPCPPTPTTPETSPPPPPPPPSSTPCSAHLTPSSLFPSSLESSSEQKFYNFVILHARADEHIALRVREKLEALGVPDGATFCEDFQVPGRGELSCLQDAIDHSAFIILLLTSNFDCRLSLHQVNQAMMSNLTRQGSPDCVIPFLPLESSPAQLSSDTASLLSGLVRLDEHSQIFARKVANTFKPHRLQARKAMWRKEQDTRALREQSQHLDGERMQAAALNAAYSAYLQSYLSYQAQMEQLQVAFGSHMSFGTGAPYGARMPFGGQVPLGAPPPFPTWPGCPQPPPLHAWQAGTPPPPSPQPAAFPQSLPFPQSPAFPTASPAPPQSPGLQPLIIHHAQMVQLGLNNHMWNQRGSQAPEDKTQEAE
UniProt Q13546: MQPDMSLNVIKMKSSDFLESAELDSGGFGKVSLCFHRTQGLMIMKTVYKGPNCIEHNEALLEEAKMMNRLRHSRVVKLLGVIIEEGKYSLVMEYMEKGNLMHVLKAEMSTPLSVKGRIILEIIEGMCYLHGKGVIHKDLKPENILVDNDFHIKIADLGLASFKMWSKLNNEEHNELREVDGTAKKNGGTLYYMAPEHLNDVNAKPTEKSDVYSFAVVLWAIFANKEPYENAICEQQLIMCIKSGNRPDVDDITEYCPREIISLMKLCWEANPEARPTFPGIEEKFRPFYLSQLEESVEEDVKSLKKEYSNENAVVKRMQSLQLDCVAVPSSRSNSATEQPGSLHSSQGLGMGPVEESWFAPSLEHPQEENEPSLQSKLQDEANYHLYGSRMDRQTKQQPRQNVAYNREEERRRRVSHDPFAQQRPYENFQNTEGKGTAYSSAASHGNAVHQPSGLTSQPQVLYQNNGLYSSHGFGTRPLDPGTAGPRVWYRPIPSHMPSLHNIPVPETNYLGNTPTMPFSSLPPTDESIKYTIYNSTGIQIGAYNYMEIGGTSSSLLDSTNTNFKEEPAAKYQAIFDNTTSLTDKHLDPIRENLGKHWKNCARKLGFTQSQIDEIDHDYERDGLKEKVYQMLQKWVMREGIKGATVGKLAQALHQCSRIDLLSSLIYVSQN

Biological target: TRIF (Toll-IL-1 receptor-domain-containing-adaptor-inducing interferon-beta factor) (human (endogenous in HeLa)) (UniProt Q8IUC6)
Test: co-IP; anti-TRIF immuno-precipitation from lysates of control and poly I:C (5 µg/ml)-transfected HeLa cells; western blot

“receptor-interacting serine/threonine-protein kinase 1 (RIPK1), full-length (from UniProt Q13546 1-671)” was tested, and the binding was “binds”.
